Results: PubChem BioAssay AID493014 (National Center for Advancing Translational Sciences (NCATS), 2011)
In all, about 340,000 compounds went through this assay and about 170 (0.05%) were called active. Inconclusive results, whose numbers are uncertain, are shown with a selection of clear calls. Calls follow the shape of the dose curve; as a rule, active = well fitted inhibition curve with a large enough effect in the signal ratio, with a control signal flat (not every such curve was filed as active); inconclusive = small, poorly fitted or top-dose-only effect, or effect the other way, or a change in a side signal; inactive = flat fitted curve, though single readings scatter; the % refers to the signal ratio. Where the call is inconclusive, the potency comes from a doubtful curve fit.

Test: qHTS Assay to Find Inhibitors of Chronic Active B-Cell Receptor Signaling;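 as to activity change, negative = inhibition: plate controls were basal doxycycline-induced cells for no effect and cells given 10 µM MG132 for full effect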
Settings: ABC-DLBCL IkBa-CBG/CBR reporter, luminescence ratio (green luciferase fused to IkBa over red control in TMD8 lymphoma cells), 4 h; activity change, negative = inhibition: at 46.1 µM (top of the series) unless noted
Procedure, shortened: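 TMD8 human ABC-DLBCL cells with doxycycline-inducible IκBα–green luciferase fusion and unfused red luciferase, in 0.5% FBS medium; compounds up to 46 uM, 4 h at 37C. Green/red luminescence ratio, filter-overlap corrected, fitted to concentration-response curves.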
Potency is read from the fitted curve at half-maximal effect.

**Q.** Which activity change, negative = inhibition does the source give for COc1ccc(-c2csc(NC(=O)CSc3nc(SC)ns3)n2)cc1 here?
**A.** inconclusive: -8.32%

**Q.** With Cc1cc(C)nc(-n2nc(C)c(Oc3ccccc3O)c2C)n1 as the molecule, how does the activity change, negative = inhibition read?
**A.** inactive

**Q.** Which activity change, negative = inhibition does the source give for CCSc1ccc(C(=O)Nc2cccc(C)n2)cc1[N+](=O)[O-] here?
**A.** inconclusive: 9.95%

**Q.** For CCC(Sc1nc2n[nH]c(C)c2c(=N)n1-c1cc(Cl)ccc1C)C(=O)N1CCOCC1 (centres undefined), which activity change, negative = inhibition is on record?
**A.** inconclusive: 13%

**Q.** For CCOc1nc(C)ccc1-c1noc(-c2ccccn2)n1, which activity change, negative = inhibition is on record?
**A.** inconclusive: 6.14%

**Q.** With CCC(=O)Nc1ccc(C(=O)N/N=C/c2c(C)[nH]c3ccccc23)cc1 as the molecule, how does the Potency read?
**A.** inconclusive: 35.5 µM [falling, partial curve, poor fit]

**Q.** For CCN(CC)CCCNC(=O)c1cc2c(-c3cccc(OC)c3)nn(C)c2s1, which activity change, negative = inhibition is on record?
**A.** inconclusive: -17.7%

**Q.** For O=C(Nc1ccc(-c2ccc3nncn3n2)cc1)C1CCCCC1, which activity change, negative = inhibition is on record?
**A.** inconclusive: -28.7%

**Q.** Which Potency does the source give for CCOc1ccc(N=c2scc(-c3ccccc3)n2CCO)cc1 here?
**A.** inconclusive: 2.59 µM [rising, full curve, poor fit]

**Q.** For CC(=O)c1sc(NC(=O)CCS(=O)(=O)c2ccccc2)nc1C, which activity change, negative = inhibition is on record?
**A.** inconclusive: -0.249%

**Q.** For COc1ccc(NC(=O)CSc2nnc(COc3ccccc3)n2Cc2ccco2)cc1OC, which activity change, negative = inhibition is on record?
**A.** inconclusive: -1.29%

**Q.** Which activity change, negative = inhibition does the source give for COc1ccc(C)c2sc(N3CCN(C(=O)c4ccco4)CC3)nc12 here?
**A.** inactive

**Q.** For O=C(C[n+]1cccc(/C=N/O)c1)N1CCCc2ccccc21, which activity change, negative = inhibition is on record?
**A.** inactive

**Q.** With COc1ccc(CCNC(=O)c2ccccc2Cl)cc1OC as the molecule, how does the Potency read?
**A.** inconclusive: 22.4 µM [falling, single point]

**Q.** For CCc1ccc(OCC2NCCc3cc(OC)c(OC)cc32)cc1 (centres undefined), which Potency is on record?
**A.** inconclusive: 17.8 µM [falling, single point]

**Q.** For O=C(C1CCC1)N(CCc1ccccc1)Cc1nc2ccccc2c(=O)[nH]1, which activity change, negative = inhibition is on record?
**A.** inconclusive: 1.49%

**Q.** Which activity change, negative = inhibition does the source give for Clc1ccc(SCc2cc(-c3ccc(Cl)cc3)on2)cc1 here?
**A.** inconclusive: 14.2%

**Q.** With Cc1cc2cc(CNC(=O)c3ccc4c(c3)OCO4)ccc2[nH]1 as the molecule, how does the activity change, negative = inhibition read?
**A.** inconclusive: -15.7%

**Q.** Which activity change, negative = inhibition does the source give for O=C(CCC1CCCC1)Nc1ccc(C(=O)NCc2cccnc2)cc1 here?
**A.** inconclusive: 6.62%

**Q.** For Cc1ccccc1CN1C[C@@H]2C[C@@H](c3cn[nH]c3-c3ccc(F)cc3)N3CCC[C@@]23C1=O, which activity change, negative = inhibition is on record?
**A.** inconclusive: -3.12%

**Q.** For Nc1nc(Cl)cc(-c2ccccc2)n1, which activity change, negative = inhibition is on record?
**A.** inconclusive: 16.7%

**Q.** With COc1ccc2c(c1)CCc1cnc(N)nc1-2 as the molecule, how does the activity change, negative = inhibition read?
**A.** inconclusive: 0.402%

**Q.** With COc1ccccc1N(CC(=O)NCCC1=CCCCC1)S(=O)(=O)c1ccccc1 as the molecule, how does the activity change, negative = inhibition read?
**A.** inactive

**Q.** With Cn1c(=O)n(C)c2cc(NC(=O)COc3ccc(Cl)cc3)ccc21 as the molecule, how does the activity change, negative = inhibition read?
**A.** inconclusive: 6.78%
